{"source": "PubChem BioAssay (NCATS)", "note": "Inconclusive means that the source gave no clear call. Such entries were picked first, then a sample of the others. Potencies of inconclusive entries are doubtful fits and often do not repeat. Calls of active or inactive are those of the source. Calls follow the shape of the dose curve; as a rule, active = well fitted cell-killing curve with a large enough effect; inconclusive = small, poorly fitted or top-dose-only effect, or effect the other way; inactive = no such curve, though single readings can be large or run the other way.", "data": [{"assay": "Quantitative High-Throughput drug screen in 47 multiple myeloma cell lines against the NCATS MIPE library collection: KMS26_JCRB cell viability assay (AID 1918975); also: nearly all actives have a fitted effect of over 45% in size; also: potency is read from the fitted curve at half-maximal effect", "settings": "KMS26 myeloma cells viability, CellTiter-Glo ATP, 48 h; viability (% of DMSO): at 45.8 µM (top of the series)", "how_it_was_run": "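Myeloma cells (500 per well) were exposed to MIPE 4.0 compounds by pin transfer and incubated 48 hours at 37C, 5% CO2. Viability was read as ATP by CellTiter-Glo luminescence, normalised to DMSO (100%) and media-only (0%) wells.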", "values": [{"compound": "CC1=C(C)C(=O)C(C(CCCCCC(=O)O)c2ccccc2)=C(C)C1=O", "note": "(stereo not drawn)", "Potency": "inconclusive: 1 nM [cytotoxic]"}, {"compound": "CO[C@H]1C(=O)[C@]2(C)[C@@H](OC)C[C@H]3OC[C@@]3(OC(C)=O)[C@H]2[C@H](OC(=O)c2ccccc2)[C@]2(O)C[C@H](OC(=O)[C@H](O)[C@@H](NC(=O)OC(C)(C)C)c3ccccc3)C(C)=C1C2(C)C", "Potency": "inconclusive: 1.7 nM [rising, full curve, poor fit]"}, {"compound": "C[C@@H]1CCN(C(=O)CC#N)C[C@H]1N(C)c1ncnc2[nH]ccc12", "Potency": "inconclusive: 93.5 nM [cytotoxic, full curve, poor fit]"}, {"compound": "CCc1ccc(C=C2SC(=S)NC2=O)cc1", "Potency": "inconclusive: 37200 nM [cytotoxic, single point]"}, {"compound": "O=c1c(-c2ccc(O)cc2)coc2cc(O)ccc12", "Potency": "inconclusive: 332 nM [rising, full curve, poor fit]"}, {"compound": "Cc1cccc(C#Cc2ccccc2)n1", "viability (% of DMSO)": "inconclusive: 103% [cytotoxic]"}, {"compound": "Nc1nc(F)nc2c1ncn2[C@@H]1O[C@H](COP(=O)(O)O)[C@@H](O)[C@H]1O", "Potency": "inactive"}, {"compound": "O=C(NNC(=O)c1ccc(CNS(=O)(=O)c2ccc(F)c(Cl)c2)cc1)c1ccccc1", "Potency": "inconclusive: 296 nM [rising, full curve, poor fit]"}, {"compound": "O=C(Nc1ccccc1)Nc1ccc(-c2ccc(C(=O)[C@H]3CCC[C@H]3C(=O)O)cc2)cc1", "Potency": "inconclusive: 37200 nM [cytotoxic, partial curve, poor fit]"}, {"compound": "NC1CCC(Nc2nc(Nc3ccc(C(=O)N4CCCCC4)cc3)c3ncn(-c4cccc(F)c4)c3n2)CC1", "note": "(stereo not drawn)", "Potency": "inconclusive: 4690 nM [rising, partial curve, poor fit]"}, {"compound": "O=C(O)c1cccc(-c2noc(-c3ccccc3F)n2)c1", "Potency": "inconclusive: 10500 nM [cytotoxic, partial curve, poor fit]"}, {"compound": "O=c1c(O)c(-c2ccc(O)c(O)c2)oc2cc(O)cc(O)c12", "Potency": "inconclusive: 9350 nM [cytotoxic, single point]"}, {"compound": "Cc1[nH]c(C=C2C(=O)Nc3ccccc32)c(C)c1CCC(=O)O", "Potency": "inconclusive: 33200 nM [cytotoxic, single point]"}, {"compound": "CC1(C)OC2=C(C(=O)c3ccccc3C2=O)[C@H](NCc2ccccc2)[C@H]1O", "Potency": "active: 5260 nM"}, {"compound": "CC[C@@H](C)[C@H](NC(=O)[C@H](CC1CCCCC1)NC(=O)c1ccno1)C(=O)N1CCC2(CCc3ccccc32)CC1", "Potency": "inconclusive: 5900 nM [cytotoxic, partial curve, poor fit]"}, {"compound": "CS(=O)(=O)CCNCc1ccc(-c2ccc3ncnc(Nc4ccc(OCc5cccc(F)c5)c(Cl)c4)c3c2)o1", "Potency": "active: 16600 nM"}, {"compound": "CC(C)(C)COc1ccc(-n2cc(C(=O)O)cn2)cc1C#N", "Potency": "inactive"}, {"compound": "CC(=O)Oc1cc2c(s1)CCN(C(C(=O)C1CC1)c1ccccc1F)C2", "note": "(stereo not drawn)", "Potency": "active: 2960 nM"}, {"compound": "COc1cc2c(cc1OC)CN(CCc1ccc(NC(=O)c3cc(OC)c(OC)cc3NC(=O)c3cnc4ccccc4c3)cc1)CC2", "Potency": "inconclusive: 26.4 nM [cytotoxic, full curve, poor fit]"}, {"compound": "CC(=O)Oc1ccccc1C(=O)O", "Potency": "active: 11800 nM"}, {"compound": "O=c1c2ccccc2nc2n1CCc1c-2[nH]c2ccccc12", "Potency": "inconclusive: 3 nM [cytotoxic, full curve, poor fit]"}, {"compound": "COc1ccc(CC2=NN3C([C@@H](CCc4ccccc4)[C@@H](C)O)=NC(C)C3C(=O)N2)cc1OC", "note": "(stereo partly drawn)", "Potency": "inconclusive: 1 nM [cytotoxic]"}, {"compound": "CCOc1ccc(Cc2cc([C@@H]3O[C@H](CO)[C@@H](O)[C@H](O)[C@@H]3O)ccc2Cl)cc1", "Potency": "inactive"}, {"compound": "CN1CCN(C2=Nc3cc(Cl)ccc3Nc3ccccc32)CC1", "Potency": "inactive"}, {"compound": "CCOC1OC(=O)C[C@H]1NC(=O)[C@@H]1CCCN1C(=O)[C@@H](NC(=O)c1ccc(N)c(Cl)c1)C(C)(C)C", "note": "(stereo partly drawn)", "Potency": "inactive"}, {"compound": "O=C(CCN1CCN(C(=O)OCc2cc(Cl)cc(Cl)c2)CC1)c1ccc2[nH]c(=O)oc2c1", "Potency": "inconclusive: 1.3 nM [cytotoxic, full curve, poor fit]"}, {"compound": "O=C(O)c1cc(=O)c2c(OCC(O)COc3cccc4oc(C(=O)O)cc(=O)c34)cccc2o1", "Potency": "inconclusive: 16.6 nM [rising, full curve, poor fit]"}, {"compound": "CO[C@H]1O[C@@H]2O[C@@]3(C)CC[C@@H]4[C@@H](C)CC[C@@H]([C@H]1C)[C@@]24OO3", "Potency": "inactive"}, {"compound": "Cc1[nH]c(=O)c(C#N)cc1-c1ccc2nccn2c1", "Potency": "inactive"}, {"compound": "Cc1c(OCC(F)(F)F)ccnc1CS(=O)c1nc2ccccc2[nH]1", "note": "(stereo not drawn)", "viability (% of DMSO)": "inconclusive: 82.2% [cytotoxic]"}, {"compound": "CCCn1c(=O)c2[nH]c(C34CC5CC3C[C@@H](C5)C4)nc2n(CCC)c1=O", "Potency": "inconclusive: 10500 nM [cytotoxic, partial curve, poor fit]"}, {"compound": "C[C@H](NC(=O)[C@@H](O)c1cc(F)cc(F)c1)C(=O)N[C@@H]1C(=O)N(C)c2ccccc2-c2ccccc21", "Potency": "inactive"}, {"compound": "Cc1ccc(NC(=O)c2ccc(CN3CCN(C)CC3)cc2)cc1Nc1nccc(-c2cccnc2)n1", "Potency": "inconclusive: 37200 nM [cytotoxic, single point]"}, {"compound": "Cc1[nH]c(=O)c(C#N)cc1-c1ccncc1", "Potency": "inactive"}, {"compound": "Clc1ccc2nsnc2c1NC1=NCCN1", "Potency": "inconclusive: 1 nM [cytotoxic]"}, {"compound": "COc1ccnc(CS(=O)c2nc3ccc(OC(F)F)cc3[nH]2)c1OC", "note": "(stereo not drawn)", "Potency": "inconclusive: 3 nM [cytotoxic, full curve, poor fit]"}, {"compound": "CCNC(=O)c1noc(-c2cc(C(C)C)c(O)cc2O)c1-c1ccc(CN2CCOCC2)cc1", "Potency": "inconclusive: 52.6 nM [cytotoxic, full curve, poor fit]"}, {"compound": "CC(C)(O)[C@H]1CC[C@@](C)([C@H]2[C@@H](O)C[C@@]3(C)[C@@H]4C[C@H](O[C@@H]5O[C@H](CO)[C@@H](O)[C@H](O)[C@@H]5O)[C@H]5C(C)(C)[C@@H](O[C@@H]6OC[C@@H](O)[C@H](O)[C@@H]6O)CC[C@@]56C[C@@]46CC[C@]23C)O1", "Potency": "inactive"}]}]}
